This note sets out measurements from the supplement of paper PMC8256030.

The test system of experiment [1] is SARS-CoV-2 -1 PRF reporter mCherry-FSE-GFP(-1). Nature of the experiment: mCherry (red) intensity as percent of control; higher = higher upstream reporter expression. The conditions noted are these: 10 µM; 24 h; HEK293T.
Experiment [2] shares this test system. Nature of the experiment: percent effect, decrease of GFP/mCherry ratio (-1 PRF reporter) relative to controls; higher = stronger frameshift inhibition. The following applies: 10 µM; 24 h; HEK293T.

Structures are written as SMILES. Where “and” joins values, the source holds several entries; their conditions need not be identical. Equal entries are not always repeated. The list shows a part of the results. Single values are uncertain here, since repeats match poorly.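 HEK293T cells were given each compound shortly before transfection with a reporter in which red mCherry is followed by the SARS-CoV-2 frameshift element and then GFP in the −1 frame, so GFP appears only after frameshifting.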

Consider `CC(CC(=O)c1ccc(-c2ccccc2)cc1)C(=O)O` (centres undefined) [metbufen], for which the mCherry in experiment [1] worked out at 95.8%. Moreover, in experiment [2], the percent effect was -3.52%.

`CC(=O)OCC(=O)[C@@]1(O)CC[C@H]2[C@@H]3CCC4=CC(=O)C=C[C@]4(C)[C@@]3(Cl)[C@@H](Cl)C[C@@]21C`: the mCherry in experiment [1] is 98.3%. Moreover, in experiment [2], the percent effect was -0.568%.

`CC(=O)O[C@]1(C(C)=O)CC[C@H]2[C@@H]3C=C(Cl)C4=CC(=O)[C@@H]5C[C@@H]5[C@]4(C)[C@H]3CC[C@@]21C` returned a mCherry in experiment [1] of 87.6%. Moreover, the percent effect in experiment [2] is -8.56%.

`O=S(=O)(O)CCSSCCS(=O)(=O)O` [dimesna]: the mCherry in experiment [1] is 107%. The percent effect in experiment [2] is -2.23%.

On to `CCN[C@H]1CN(CCCOC)S(=O)(=O)c2sc(S(N)(=O)=O)cc21` [brinzolamide], for which, in experiment [1], the mCherry is 98.4% and 99.1%. Moreover, in experiment [2], the percent effect is 0.7% and -5.43%.

Compound `CN(C)CCOC(C)(c1ccccc1)c1ccc(Cl)cc1` (centres undefined) [chlorphenoxamine] registered a mCherry in experiment [1] of 96.3%. The percent effect in experiment [2] came out at 1.1%.

Take `CN1CCc2c(c3ccccc3n2Cc2ccccc2)C1` [mebhydrolin]: the mCherry in experiment [1] turned out to be 104%. Besides, the percent effect in experiment [2] was -7.92%.

In experiment [1], `CC(C)(C)CC(C)(C)c1ccc(O)c(Cc2ccc(Cl)cc2Cl)c1` [clofoctol] returned a mCherry of 98.3%. Also, the percent effect in experiment [2] is -3.93%.

Turning to `CCCN1CCCC[C@H]1C(=O)Nc1c(C)cccc1C` [ropivacaine], in experiment [1], the mCherry came out at 111%. Moreover, in experiment [2], the percent effect was 4.36%.

`COc1cc([C@@H]2c3cc4c(cc3[C@@H](O[C@@H]3O[C@@H]5CO[C@@H](c6cccs6)O[C@H]5[C@H](O)[C@H]3O)[C@H]3COC(=O)[C@H]23)OCO4)cc(OC)c1O` [teniposide]: the mCherry in experiment [1] is 28.4%. Besides, the percent effect in experiment [2] is -1.72%.

As to `N=C(N)NC(=O)c1nc(Cl)c(N)nc1N` [amiloride], in experiment [1], the mCherry is 85.5%. In addition, in experiment [2], the percent effect was -8.64%.

Compound `CN[C@H](CC(C)C)C(=O)N[C@H]1C(=O)N[C@@H](CC(N)=O)C(=O)N[C@H]2C(=O)N[C@H]3C(=O)N[C@H](C(=O)N[C@H](C(=O)O)c4cc(O)cc(O)c4-c4cc3ccc4O)[C@H](O)c3ccc(c(Cl)c3)Oc3cc2cc(c3O[C@@H]2O[C@H](CO)[C@@H](O)[C@H](O)[C@H]2O[C@H]2C[C@](C)(N)[C@H](O)[C@H](C)O2)Oc2ccc(cc2Cl)[C@H]1O` returned a mCherry in experiment [1] of 118%. In experiment [2], the percent effect is -12.8%.

As to `Nc1c(CC(=O)O)cccc1C(=O)c1ccc(Br)cc1` [bromfenac], in experiment [1], the mCherry was found to be 96.3%. Besides, the percent effect in experiment [2] is -3.17%.

In experiment [1], `Cc1ccnc(NS(=O)(=O)c2ccc(N)cc2)n1` [sulfamerazine] came in with a mCherry of 124%. Moreover, the percent effect in experiment [2] was -1.29%.

In experiment [1], `CC(C)CCCCC(=O)N[C@@H](CCN)C(=O)N[C@@H](CN[C@@H](CCN)C(=O)N[C@H]1CCNC(=O)[C@H]([C@@H](C)O)NC(=O)[C@H](CCN)NC(=O)[C@H](CCN)NC(=O)[C@H](CC(C)C)NC(=O)[C@@H](CC(C)C)NC(=O)[C@H](CCN)NC1=O)[C@@H](C)O.CCC(C)CCCCC(=O)N[C@@H](CCN)C(=O)N[C@@H](CN[C@@H](CCN)C(=O)N[C@H]1CCNC(=O)[C@H]([C@@H](C)O)NC(=O)[C@H](CCN)NC(=O)[C@H](CCN)NC(=O)[C@H](CC(C)C)NC(=O)[C@@H](CC(C)C)NC(=O)[C@H](CCN)NC1=O)[C@@H](C)O` (some centres undefined) came in with a mCherry of 96.3%. In experiment [2], the percent effect is -3.35%.

As for `COCCc1ccc(OCC(O)CNC(C)C)cc1` (centres undefined) [metoprolol], the mCherry in experiment [1] is 115% and 95.4%. Besides, the percent effect in experiment [2] was -2.51% and -4.01%.

In the case of `CN1c2c(oc(=O)n(-c3ccccn3)c2=O)-c2ccccc2S1(=O)=O` [droxicam], the mCherry in experiment [1] turned out to be 87.6%. Besides, in experiment [2], the percent effect stood at 0.776%.

`CC(=O)NCC(=O)O` [aceturate] came in with a mCherry in experiment [1] of 95.8%. Further, in experiment [2], the percent effect was 0.812%.

With `Cc1ccc(S(=O)(=O)NC(=O)NN2CC3CCCC3C2)cc1` (centres undefined) [gliclazide], in experiment [1], the mCherry is 97.3% and 78.2%. For the same compound, in experiment [2], the percent effect was 0.581% and -1.42%.

Take `CCS(=O)(=O)c1ccc(F)cc1` [fluoresone]: the mCherry in experiment [1] came out at 93.1%. In addition, the percent effect in experiment [2] is -2.76%.

`CC1=C[C@H](O)CC(C)(C)[C@H]1/C=C/C(C)=C/C=C/C(C)=C/C=C/C=C(C)/C=C/C=C(C)/C=C/C1=C(C)C[C@@H](O)CC1(C)C` showed a mCherry in experiment [1] of 86.8%. Moreover, the percent effect in experiment [2] was -2.38%.

With `CO[C@H]1C[C@H](O[C@@H]2/C(C)=C/C[C@@H]3C[C@@H](C[C@]4(CC[C@H](C)[C@@H](C5CCCCC5)O4)O3)OC(=O)[C@@H]3C=C(C)/C(=N/O)[C@H]4OC/C(=C\C=C\[C@@H]2C)[C@]43O)O[C@@H](C)[C@@H]1O` [selamectin], in experiment [1], the mCherry turned out to be 48.3%. Besides, the percent effect in experiment [2] was -6.82%.

Take `OCc1cc(C(O)CNCCCCCCOCCCCc2ccccc2)ccc1O` (centres undefined) [salmeterol]: in experiment [1], the mCherry is 33.9%. In addition, in experiment [2], the percent effect was -7.92%.

In experiment [1], `O=C(CCCCCCCC(=O)NCCO)NCCO` [adelmidrol] had a mCherry of 75.3%. For the same compound, the percent effect in experiment [2] is -7.66%.

`COc1ccccc1O` [Guaiacol]: the mCherry in experiment [1] was 84.5%. For the same compound, the percent effect in experiment [2] amounted to 0.0712%.

In experiment [1], `CCOc1nc2cccc(C(=O)O)c2n1Cc1ccc(-c2ccccc2-c2nnn[nH]2)cc1` [candesartan] came in with a mCherry of 104%. Further, in experiment [2], the percent effect was -2.69%.

`COC(=O)N/N=C/c1c[n+]([O-])c2ccccc2[n+]1[O-]` [Carbadox] registered a mCherry in experiment [1] of 113%. The percent effect in experiment [2] is -4.18%.

In the case of `CN(C)c1cc(NC(=O)CNC(C)(C)C)c(O)c2c1CC1CC3C(N(C)C)C(=O)C(C(N)=O)=C(O)C3(O)C(=O)C1=C2O` (centres undefined) [Tygacil], the mCherry in experiment [1] worked out at 97.1%. In experiment [2], the percent effect was -7.3%.

On to `CC1(C)S[C@@H]2[C@H](NC(=O)COc3ccccc3)C(=O)N2[C@H]1C(=O)O` [Pencillin V], for which the mCherry in experiment [1] worked out at 79.4%. For the same compound, in experiment [2], the percent effect was -4.57%.

In the case of `Nc1nnc(-c2cccc(Cl)c2Cl)c(N)n1` [lamotrigine], in experiment [1], the mCherry was 99.8% and 106%. The percent effect in experiment [2] is -0.493% and 1.82%.

For `Oc1c(Cl)cc(Cl)c(Cl)c1Cc1c(O)c(Cl)cc(Cl)c1Cl` [hexachlorophene], the mCherry in experiment [1] was 27.2%. Moreover, in experiment [2], the percent effect is -10.1%.

Compound `CC(CC(c1ccccc1)c1ccccc1)NC(C)(C)C` (centres undefined) [terodiline] displayed a mCherry in experiment [1] of 71.7%. In experiment [2], the percent effect is -4.6%.
